PubChem BioAssay AID504842 (National Center for Advancing Translational Sciences (NCATS), 2011)
The campaign covered roughly 330,000 compounds. About 100 (0.03%) were called active. Inconclusive results, whose numbers are uncertain, are shown with a selection of clear calls. Calls follow the shape of the dose curve; as a rule, active = well fitted inhibition curve with a large enough effect; inconclusive = small, poorly fitted or top-dose-only effect; inactive = flat fitted curve, though single readings scatter. Potencies beside an inconclusive call are fits to weak or partial responses and may not hold up.

Each molecule was assayed on Chaperonin Mm-Cpn (Methanococcus maripaludis) (assay: Inhibitors of TCP-1 ring complex (TRiC) of Methanococcus maripaludis (MmCpn): qHTS). Conditions: purified Mm-Cpn ATPase, ADP Transcreener TR-FRET.
Outline: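 25 nM Mm-CPN + cpd, 10 min 37°C; + 10 uM ATP, 30 min 37°C; buffer 30 mM Tris pH 7.4, 100 mM KCl, 5 mM MgCl2, 1 mM DTT; Transcreener ADP HTRF detection 30 min RT.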
% is scaled to controls: 0 for no effect and ±100 for the full control effect; potency is read from the fitted curve at half-maximal effect.
Also: nearly all actives have a fitted effect of over 80% in size.
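For Potency in this document: enzyme at 25 nM with ATP substrate at 10 µM during the reaction.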

Potency, inconclusive:
CC1CCCCC1NC(=O)c1ccc(N2CCCC2=O)cc1 (configuration not stated) 100 µM [inhibitor, single point]
CN(C)c1ncccc1-c1nc2ccccc2s1 63.1 µM [inhibitor, single point]
OC(COCc1ccc(Cl)cc1)CN1CCCCC1 (configuration not stated) 15.8 µM [inhibitor, single point]
O=C(NC(=O)c1ccccc1)Nc1ccc(-c2cnco2)cc1 112 µM [inhibitor, partial curve]
CCOC(=O)c1c(S(=O)(=O)Nc2cccc(-c3ccno3)c2)c(C)n(C)c1C 44.7 µM [inhibitor, single point]
COc1ccc(-n2nc(C(=O)NCC(=O)Nc3cccc(C)n3)c3ccccc3c2=O)cc1 15.8 µM [inhibitor, single point]
O=C(O)c1ccc(Cn2c(SCc3cc(=O)n4cc(Br)ccc4n3)nc3ccsc3c2=O)cc1 70.8 µM [inhibitor, partial curve, poor fit]
O=C(NC(=S)N1CCc2ccccc21)c1ccc(Br)o1 17.8 µM [inhibitor, partial curve, poor fit]
CCOC(=O)c1sc(=NC(=O)c2cc(OC)c(OC)c(OC)c2)n(C)c1C 100 µM [inhibitor, single point]
O=C(CSc1nc2ccc([N+](=O)[O-])cc2s1)c1ccc2ccccc2c1 100 µM [inhibitor, single point]
CC1(C)CC(=O)c2cc(N=C/C(C(=O)c3ccccc3)=C(\O)c3ccccc3)c(=O)oc2C1 100 µM [inhibitor, single point]
O=C(Nc1ccc(Cl)c(-c2nc3ccccc3[nH]2)c1)c1ccc2c(c1)OCO2 100 µM [inhibitor, single point]
O=C(CSc1nc2cc(Cl)ccc2c(=O)n1Cc1ccco1)Nc1ccc(S(=O)(=O)N2CCOCC2)cc1 79.4 µM [inhibitor, partial curve, poor fit]
CCN1CCN(c2cc(C)c3cc(NC(=S)N4CCN(c5ccccc5F)CC4)ccc3n2)CC1 63.1 µM [inhibitor, single point]
COc1ccc(NC(=O)Cn2c(-c3ccccc3)cc(C(C)=O)c2C)c(OC)c1 112 µM [inhibitor, single point]
CCOC(=O)c1nc(C)[nH]c1C(=O)OCC 50.1 µM [inhibitor, single point]
CN/N=C/c1ccc(C#N)cc1 10 µM [inhibitor, single point]
CCCSc1nc(SCC(=O)NCc2ccccc2)c2c3c(sc2n1)COC(C)(CC)C3 (configuration not stated) 89.1 µM [inhibitor, single point]
Cc1cc(C(=O)COC(=O)CNC(=O)c2ccco2)c(C)n1Cc1ccco1 100 µM [inhibitor, single point]
NS(=O)(=O)c1ccc(CNS(=O)(=O)c2ccc(Cl)nc2)cc1 50.1 µM [inhibitor, single point]
O=C(NCc1ccccc1Cl)C1CCCN(c2nc3ccsc3c(=O)s2)C1 (configuration not stated) 70.8 µM [inhibitor, single point]
CCCOc1ccc(-c2csc3nc[nH]c(=O)c23)cc1 56.2 µM [inhibitor, single point]
O=[N+]([O-])c1cc(Cl)cc(/C=N\Nc2ccccn2)c1O 25.1 µM [inhibitor, single point]
CCC(=O)N1CCc2cc(S(=O)(=O)NCCC(=O)Nc3ccccc3C)ccc21 100 µM [inhibitor, partial curve, poor fit]
Cc1ccccc1CN1CCN(C(=O)c2cccc(F)c2)CC1 141 µM [inhibitor, partial curve, poor fit]
COc1ccc(C2NC(=S)N(c3ccccc3)C(C)=C2C(=O)Nc2ccccc2)cc1 (configuration not stated) 100 µM [inhibitor, single point]
CCc1nc(C)c(C(=O)N2CCCC(C(=O)Nc3cccc(-c4cccc(C)c4)c3)C2)o1 (configuration not stated) 11.2 µM [inhibitor, single point]
Nc1ccccc1C#CC(=O)c1ccccc1 100 µM [inhibitor, single point]
Cc1cccc(C(=O)Nc2ccc(C(=O)/C=C/c3cccs3)cc2)c1 891 µM [inhibitor, partial curve, poor fit]
CCCN(C(=O)COC(=O)C12CCC(=O)N1c1ccccc1S2)c1c(N)n(Cc2ccccc2)c(=O)[nH]c1=O (configuration not stated) 28.2 µM [inhibitor, partial curve, poor fit]
CC(c1ccccc1)N1CC(C(=O)Nc2ccc(F)cc2)CC1=O (configuration not stated) 50.1 µM [inhibitor, single point]

Molecules above that have a nitro group on carbon:
Potency, inconclusive:
O=C(CSc1nc2ccc([N+](=O)[O-])cc2s1)c1ccc2ccccc2c1 100 µM [inhibitor, single point]
O=[N+]([O-])c1cc(Cl)cc(/C=N\Nc2ccccn2)c1O 25.1 µM [inhibitor, single point]

Two records drawn at random from those above, as already listed:
Potency, inconclusive:
CCCSc1nc(SCC(=O)NCc2ccccc2)c2c3c(sc2n1)COC(C)(CC)C3 (configuration not stated) 89.1 µM [inhibitor, single point]
COc1ccc(NC(=O)Cn2c(-c3ccccc3)cc(C(C)=O)c2C)c(OC)c1 112 µM [inhibitor, single point]

Following part.

Potency, inactive:
CC(=O)c1ccc(N2CCC(c3cc(-c4ccc(Cl)cc4)n[nH]3)CC2)c([N+](=O)[O-])c1
CCN(CC(=O)Nc1ccccc1C(F)(F)F)C(=O)CCc1nc2sc3c(c2c(=O)[nH]1)CCCC3
CC1CCCCC1NC(=O)c1c(O)nc2ccccn2c1=O (configuration not stated)
COc1ccc(OCC(=O)Nc2ccc(S(=O)(=O)Nc3cc(C)nc(C)n3)cc2)cc1
Cc1cc(C[n+]2ncsc2N)c2ncccc2c1
O=C(NC(c1ccc(Cl)cc1)c1cc(Cl)c2cccnc2c1O)c1cccnc1 (configuration not stated)
CC(C(=O)NC1CCCC1)N(C(=O)c1ccc(-c2ccccc2)[nH]1)c1ccccc1F (configuration not stated)
COc1cc(CN2CCCC(C)C2)ccc1OCc1ccccc1 (configuration not stated)
O=S1(=O)NC2CCCCCN2c2ccc(F)cc21 (configuration not stated)
COCCn1c(C)cc(C(=O)COC(=O)c2cccc(O)c2)c1C

activity, negative = inhibition, inactive:
CCOc1cc(C)cc2oc(=O)cc(-c3ccccc3)c12 0.949% [at 15.4 µM]
